The results in this text go back to paper PMC5431093, “A HAND to TBX5 Explains the Link Between Thalidomide and Cardiac Diseases” (Scientific Reports, 2017).

Amino acid sequences for entries named in this document (tags omitted).
UniProt P46152: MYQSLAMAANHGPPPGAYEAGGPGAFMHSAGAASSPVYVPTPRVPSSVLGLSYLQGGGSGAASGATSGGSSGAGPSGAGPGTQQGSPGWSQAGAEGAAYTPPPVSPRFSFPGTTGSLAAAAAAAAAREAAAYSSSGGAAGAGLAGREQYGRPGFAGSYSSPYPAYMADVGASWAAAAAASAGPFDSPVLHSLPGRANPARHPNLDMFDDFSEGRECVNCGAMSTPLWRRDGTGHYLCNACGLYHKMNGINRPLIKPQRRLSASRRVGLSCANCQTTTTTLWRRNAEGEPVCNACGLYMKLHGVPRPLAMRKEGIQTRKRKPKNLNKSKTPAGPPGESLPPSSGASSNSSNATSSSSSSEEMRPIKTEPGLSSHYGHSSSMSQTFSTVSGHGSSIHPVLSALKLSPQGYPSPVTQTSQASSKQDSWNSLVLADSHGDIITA

No constants are given. Whether binding was seen depends on the method and setting. For some of these results: Binding seen in cells or lysates may run through a third protein. Some entries that bind do so weakly or less than the wild type. For some of these results: Sequences can lack the tags named with a protein.

The target in assay [1] is T1, HA-tagged TBX5 (murine Tbx5 isoform A) (mouse, UniProt P70326 1-518).
T1 sequence (looked up): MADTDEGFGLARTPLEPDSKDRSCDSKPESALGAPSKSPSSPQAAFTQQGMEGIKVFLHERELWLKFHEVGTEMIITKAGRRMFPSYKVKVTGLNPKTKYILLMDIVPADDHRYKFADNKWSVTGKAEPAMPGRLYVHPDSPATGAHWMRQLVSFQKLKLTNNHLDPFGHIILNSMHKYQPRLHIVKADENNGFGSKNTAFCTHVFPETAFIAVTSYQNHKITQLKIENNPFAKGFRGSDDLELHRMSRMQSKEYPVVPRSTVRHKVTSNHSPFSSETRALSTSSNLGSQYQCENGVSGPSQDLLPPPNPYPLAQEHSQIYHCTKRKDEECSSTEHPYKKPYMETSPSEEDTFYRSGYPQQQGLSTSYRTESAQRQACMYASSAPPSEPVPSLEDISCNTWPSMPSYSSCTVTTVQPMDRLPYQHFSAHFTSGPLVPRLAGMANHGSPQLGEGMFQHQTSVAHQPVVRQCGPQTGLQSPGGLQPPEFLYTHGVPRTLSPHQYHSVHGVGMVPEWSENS
The experiment in a line: co-IP; as a1 but the extracts incubated with thalidomide (4 uM by the legends; 200 mg by the methods).

Assay [2] concerns the target T1, HA-tagged TBX5 (murine Tbx5 isoform A). The experiment in a line: co-IP; nuclear extracts of separately transfected HEK293 cells mixed (100 ug each), anti-HA on Protein A/G Dynabeads, 2 h, alone or with DMSO; blot with anti-Flag, re-blot with anti-HA.
Assay [3] addresses T2, E47/Pan protein (UniProt P15923).
T2 sequence: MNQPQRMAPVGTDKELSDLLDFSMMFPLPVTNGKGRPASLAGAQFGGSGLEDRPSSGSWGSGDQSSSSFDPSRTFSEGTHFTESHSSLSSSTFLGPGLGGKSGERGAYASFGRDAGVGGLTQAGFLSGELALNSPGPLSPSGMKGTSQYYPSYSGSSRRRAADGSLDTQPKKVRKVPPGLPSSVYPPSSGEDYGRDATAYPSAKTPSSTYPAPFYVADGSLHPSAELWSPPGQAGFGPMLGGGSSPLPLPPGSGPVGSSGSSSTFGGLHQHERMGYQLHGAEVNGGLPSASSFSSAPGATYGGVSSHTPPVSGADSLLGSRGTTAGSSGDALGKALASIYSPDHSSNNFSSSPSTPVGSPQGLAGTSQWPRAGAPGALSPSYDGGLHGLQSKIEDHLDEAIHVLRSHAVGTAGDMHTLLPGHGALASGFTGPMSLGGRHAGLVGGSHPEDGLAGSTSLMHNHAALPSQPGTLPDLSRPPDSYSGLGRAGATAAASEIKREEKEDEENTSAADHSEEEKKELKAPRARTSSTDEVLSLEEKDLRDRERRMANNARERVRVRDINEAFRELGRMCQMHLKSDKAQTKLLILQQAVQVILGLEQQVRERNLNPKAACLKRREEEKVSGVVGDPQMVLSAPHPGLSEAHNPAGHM
The experiment in a line: native gel or EMSA; nuclear extracts of HEK293 cells with HAND2 (wild type or G202V) mixed with the same amount of E47/Pan extract, radiolabelled consensus HAND binding site probe; complex seen on DNA. On the technique in general: A gel shift assay detects complexes by their altered migration in electrophoresis.

Regarding “Flag-tagged GATA4 (from UniProt P46152 1-440)”, the binding result in assay [1] and in assay [2] was “binds” in each case.

B1: Flag-tagged HAND2 wild type (natural protein, mouse, UniProt Q61039 1-217, looked up)
chain: MSLVGGFPHHPVVHHEGYPFAAAAAAAAAAAASRCSHEENPYFHGWLIGHPEMSPPDYSMALSYSPEYASGAAGLDHSHYGGVPPGAGPPGLGGPRPVKRRGTANRKERRRTQSINSAFAELRECIPNVPADTKLSKIKTLRLATSYIAYLMDLLAKDDQNGEAEAFKAEIKKTDVKEEKRKKELNEILKSTVSSNDKKTKGRTGWPQHVWALELKQ
As for B1, the binding result in assay [3] and in assay [2] was “binds” throughout.
